Assay results taken from PubChem BioAssay AID1347076 (National Center for Advancing Translational Sciences (NCATS), 2019).
Hit rate of the full screen: of about 400,000 compounds, about 13,000 (3.2%) were called active. Inconclusive means that the source gave no clear call. Such entries were picked first, then a sample of the others. Calls come from the whole dose curve; as a rule, active = well fitted cell-killing curve with a large enough effect; inconclusive = small, poorly fitted or top-dose-only effect, or effect the other way; inactive = flat fitted curve, though single readings scatter. Potencies of inconclusive entries are doubtful fits and often do not repeat.

Test: qHTS assay for MDR1-selective chemotherapeutics: Primary screen using the drug-selected MDR subline cells KB-V1; note: nearly all actives have a fitted effect of over 60% in size
Conditions: KB-V1 MDR cells viability, CellTiter-Glo, 72 h; activity change, negative = cytotoxicity: at 46.1 µM (top of the series)
Procedure, shortened: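 KB-V1, DMEM (no phenol red) + 10% FBS; cpd pin-transferred, titration series; 72 h, 37 degrees C; CellTiter-Glo, luminescence. Data normalized, curve-fit.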
% is set by controls: 0 for no effect and ±100 for the full control effect; potency is the fitted concentration of half-maximal effect.

Compound	activity change, negative = cytotoxicity	Potency
CC1CCCCN1c1nnc(N)s1 (configuration not stated)	inactive: 3.59%	
CCCC1(CCC)NC(=O)N(CC(=O)Nc2ccc(Cl)c(S(=O)(=O)N3CCOCC3)c2)C1=O		inconclusive: 5.8 µM [rising, partial curve, poor fit]
Cc1cccc2nc(-c3cccnc3)c(NCCC(C)C)n12		inconclusive: 23.1 µM [cytotoxic, partial curve, poor fit]
O=C(CSc1ccc2c(c1)OCCO2)Nc1ncc(Cl)cc1Cl		active: 20.6 µM
CS(=O)(=O)N1CCC(Oc2ccccc2C(=O)NCCCc2cccnc2)CC1		inconclusive: 5.17 µM [rising, full curve]
Cc1nc(N2CCN(c3ccccn3)CC2)c2c(C)c(C(=O)Nc3c(C)cc(Br)cc3C)sc2n1	inactive: 12.3%	
COc1ccc(S(=O)(=O)N2CCSC2c2ccc(OC)c(OC)c2)cc1 (configuration not stated)	inactive: 0%	
CC(C)C(OC(=O)c1ccco1)C(=O)NC1CCCCC1 (configuration not stated)		inconclusive: 29.1 µM [rising, partial curve, poor fit]
Cc1ccc(C)c2c1CCC(=Cc1ccccc1[N+](=O)[O-])C2=O	inactive: -23%	
COC1=C(Nc2ccc(O)cc2)C(=O)c2ccccc2C1=O		inconclusive: 29.1 µM [cytotoxic, single point]
Cc1ccc(-n2cc(CNC(C)Cn3cncn3)c(-c3ccc(F)cc3)n2)cc1 (configuration not stated)		inconclusive: 4.61 µM [cytotoxic, full curve]
CC(=O)N(O)c1ccc(C=Cc2ccccc2)cc1		inconclusive: 25.9 µM [cytotoxic, single point]
O=C(OCCN1C(=O)c2ccccc2C1=O)[C@@H]1CC(O)CN1S(=O)(=O)c1ccccc1[N+](=O)[O-] (some centres not stated)		inconclusive: 8.2 µM [rising, partial curve, poor fit]
COc1cc(NC(=O)CC(C)n2nc(C)cc2C)cc(OC)c1 (configuration not stated)	inactive: 7.93%	
CC1CCN(S(=O)(=O)c2nnc(NC(=O)c3cccc(Br)c3)s2)CC1	inactive: -11.9%	
COc1ccc(-c2cc3nc(CCl)[nH]c(=O)c3s2)cc1		inconclusive: 25.9 µM [cytotoxic, single point]
CCOc1ccc(NC(=O)CN(C)C(=O)c2cn(-c3ccccc3)nc2-c2cccs2)cc1OCC		inconclusive: 29.1 µM [cytotoxic, single point]
CCc1nc2c(OCCC3CCCCC3)cccn2c1N(C)C(=O)c1ccc(OC)cc1		inconclusive: 23.1 µM [cytotoxic, partial curve, poor fit]
N/C(Cc1ccc([N+](=O)[O-])cc1)=N\OC(=O)c1ccccc1Br	inactive: -17.9%	
CCCC1=NN2C(=N)/C(=C\c3cc(C)n(-c4cc(C)cc(C)c4)c3C)C(=O)N=C2S1		inconclusive: 25.9 µM [cytotoxic, partial curve, poor fit]
O=C(NCCc1ccccc1)C(=O)NCC(c1ccc2c(c1)OCO2)N1CCOCC1 (configuration not stated)		inconclusive: 29.1 µM [rising, single point]
CCc1nnc(NC(=O)C2CC(=O)N(c3ccc4c(c3)OCCO4)C2)s1 (configuration not stated)	inactive: 0%	
COc1ccccc1NC(=O)c1ccc(NC(=O)COC(=O)c2cncc(Br)c2)cc1		inconclusive: 29.1 µM [rising, single point]

Full records, looked up by structure:
CC(C)C(OC(=O)c1ccco1)C(=O)NC1CCCCC1 (configuration not stated) as listed: Potency: inconclusive: 29.1 µM [rising, partial curve, poor fit]
Cc1cccc2nc(-c3cccnc3)c(NCCC(C)C)n12 as listed: Potency: inconclusive: 23.1 µM [cytotoxic, partial curve, poor fit]
COc1ccc(-c2cc3nc(CCl)[nH]c(=O)c3s2)cc1 as listed: Potency: inconclusive: 25.9 µM [cytotoxic, single point]

Following part.

Compound	activity change, negative = cytotoxicity	Potency
CCCOc1cccc(-c2nn(-c3ccccc3)cc2/C=C(\C#N)C(=O)NCCCn2ccnc2)c1		active: 18.4 µM
CC1=C(C(=O)OCCC#N)C(c2cc3c(cc2Br)OCO3)NC(=O)N1 (configuration not stated)		inconclusive: 29.1 µM [cytotoxic, single point]
COc1cccc(C(=O)/C=C/Nc2ccc(S(=O)(=O)Nc3ncccn3)cc2)c1		inconclusive: 29.1 µM [cytotoxic, single point]
Cc1ccc(C)c(Cn2nnc3c(=O)[nH]c(C(=O)NCc4ccco4)nc32)c1		inconclusive: 29.1 µM [cytotoxic, single point]
COC(=O)c1cn(C(=O)OC)c2ccccc12		inconclusive: 9.2 µM [rising, partial curve, poor fit]
CC(CC(=O)Nc1cc([N+](=O)[O-])ccc1Cl)c1ccccc1 (configuration not stated)		inconclusive: 29.1 µM [cytotoxic, single point]
COc1ccc(CCn2c(C)cc(C(=O)CSc3nnc(N)s3)c2C)cc1		inconclusive: 16.4 µM [cytotoxic, single point]
CCc1ccc(N2C(=O)CN(Cc3cc(OC)c(OC)c(OC)c3)C2=S)cc1		active: 7.31 µM
CCCCC(=O)Nc1cccc(NC(=O)CC)c1	inactive: 9.38%	
CCN(CC)S(=O)(=O)c1cccc(C(=O)N2CCCCC2)c1		inconclusive: 16.4 µM [cytotoxic, single point]
O=C(NCCN=C1NS(=O)(=O)c2ccccc21)c1ccc2nccnc2c1		inconclusive: 11.6 µM [rising, partial curve]
CN1C(=O)C2(N=c3ccccc3=N2)c2ccccc21		inconclusive: 11.6 µM [cytotoxic, partial curve, poor fit]
CCOc1ccc(C(CCc2ccccc2)NC(=O)c2ccccc2)cc1OCC (configuration not stated)		active: 9.2 µM
Fc1ccccc1NC(=S)Nc1ccc(CN2CCOCC2)cc1		inconclusive: 29.1 µM [rising, partial curve, poor fit]
CCc1nc2c(C#N)c(-c3ccc(Cl)cc3)ccn2n1		inconclusive: 2.59 µM [cytotoxic, partial curve, poor fit]
CC(C)OC(=O)C(C)Nc1ccc(F)c(Cl)c1 (configuration not stated)		inconclusive: 29.1 µM [rising, partial curve, poor fit]
O=C(COC(=O)c1ccc(-c2ccccc2)cc1)Nc1ccccc1-c1ccccc1		inconclusive: 16.4 µM [rising, partial curve, poor fit]
Cc1ccccc1NC1=C(C(=O)c2ccccc2)N(C)S(=O)(=O)c2ccccc21		inconclusive: 20.6 µM [cytotoxic, partial curve, poor fit]
Cn1c(=O)[nH]c(=O)c2c1nc(CN1CCN(c3ccccc3F)CC1)n2CCCc1ccccc1		inconclusive: 7.31 µM [cytotoxic, partial curve, poor fit]
C[C@@H]1CN([C@@H](C)CO)C(=O)CCCn2cc(nn2)CO[C@H]1CN(C)S(=O)(=O)c1ccc(Oc2ccccc2)nc1		inconclusive: 0.0052 µM [rising, full curve, poor fit]
CC(=O)Nc1cc(-c2cccc(C(=O)NCCO)c2)cn2c(-c3ccc(F)cc3)cnc12	inactive: 1.11%	
O=C(NCC1CCCN1S(=O)(=O)c1cccs1)C(=O)Nc1cccc(F)c1 (configuration not stated)	inactive: -19.2%	
CC(Cl)=CCn1c(NCCc2ccccc2)nc2c1c(=O)n(C)c(=O)n2C	inactive: -19.1%	

Compound	activity change, negative = cytotoxicity	Potency
COCCNC(=O)c1cc(-c2ccccc2)sc1N		inconclusive: 16.4 µM [cytotoxic, partial curve, poor fit]
CCOC(=O)C1(Cc2ccccc2C(F)(F)F)CCN(CC2CC2)CC1	inactive: -16.8%	
CC(=O)OC1COC(n2c(O)c(N=NC(N)=S)c3ccccc32)C(OC(C)=O)C1OC(C)=O (configuration not stated)	inconclusive: 36.2%	
O=C(c1ccccc1)c1ccc(OC(=O)N2CCOCC2)cc1		inconclusive: 29.1 µM [cytotoxic, single point]
Cc1cc(/C=C2/NC(=O)N(c3ccccc3)C2=O)c(C)n1C(C)C		inconclusive: 9.2 µM [cytotoxic, partial curve, poor fit]
Cc1ccc(C)c(NC(=S)N2CCCCC2CO)c1 (configuration not stated)		inconclusive: 23.1 µM [rising, single point]
O=C(N/N=C/c1ccc(N2CCOCC2)o1)c1cccc(F)c1		inconclusive: 11.6 µM [rising, partial curve]
COc1ccccc1C(=O)NCC(=O)N1CCN(C/C=C/c2ccccc2)CC1		active: 8.2 µM
O=C1CCN(Cc2ccccc2)CCN1[C@H](CO)Cc1ccccc1		inconclusive: 20.6 µM [cytotoxic, partial curve, poor fit]
CCN1CCN(C(=O)c2ccc(OCC(=O)Nc3ccc(F)cc3)c(OC)c2)CC1		inconclusive: 20.6 µM [cytotoxic, single point]
CCc1ccc(NC(=O)CSc2nc3ccccc3nc2N2CCCCC2)cc1		inconclusive: 29.1 µM [cytotoxic, single point]
COc1ccc(NC(=O)CCc2c(C)nc3nc(CNC(=O)OC(C)(C)C)nn3c2C)cc1OC		inconclusive: 18.4 µM [rising, single point]
COc1ccccc1NC(=O)CN(c1ccccc1C)S(C)(=O)=O		inconclusive: 9.2 µM [cytotoxic, partial curve]
COc1ccc(Cn2ccnc2SCC(=O)Nc2ccccc2)cc1		inconclusive: 16.4 µM [cytotoxic, single point]
O=C(Nc1ccc(Cl)c(C(F)(F)F)c1)NC1CC2CCCC(C1)N2C1CC1 (configuration not stated)		inconclusive: 28.2 µM [cytotoxic, single point]
COc1cc2c(c(O)c1OC)-c1c(cc(OC)c(OC)c1OC)C[C@@H](C)[C@@H](C)C2	inconclusive: 17%	
CCc1ccccc1NC(=O)N1CCN(C(=O)c2nsc3ccccc23)CC1	inactive: -9.18%	
Cc1cc(N2CCN(c3nc(-c4ccccc4)cs3)CC2)c2ccccc2n1		inconclusive: 5.8 µM [cytotoxic, partial curve]
COc1cc2c(cc1OC)CN(C(=O)CSc1nc3[nH]ncc3c(=O)n1-c1ccccc1)CC2	inactive: -10.4%	
Cc1sc2ncn(CC(=O)NCCCC(=O)N(C)Cc3ccccc3)c(=O)c2c1C		inconclusive: 25.9 µM [cytotoxic, single point]
COc1cccc(CNc2ccc(Br)cn2)c1O		inconclusive: 29.1 µM [cytotoxic, single point]
